Source: PubChem BioAssay AID493014 (National Center for Advancing Translational Sciences (NCATS), 2011)
Hit rate of the full screen: of about 340,000 compounds, about 170 (0.05%) were called active. The inconclusive results got no clear call from the source; some entries with a clear call stand among them for comparison. Calls follow the shape of the dose curve; as a rule, active = well fitted inhibition curve with a large enough effect in the signal ratio, with a control signal flat (not every such curve was filed as active); inconclusive = small, poorly fitted or top-dose-only effect, or effect the other way, or a change in a side signal; inactive = flat fitted curve, though single readings scatter; the % refers to the signal ratio. A potency beside an inconclusive call is a rough fit, not a confirmed value.

Experiment: qHTS Assay to Find Inhibitors of Chronic Active B-Cell Receptor Signaling;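 as to activity change, negative = inhibition: plate controls were basal doxycycline-induced cells for no effect and cells given 10 µM MG132 for full effect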
Conditions: ABC-DLBCL IkBa-CBG/CBR reporter, luminescence ratio (green luciferase fused to IkBa over red control in TMD8 lymphoma cells), 4 h; activity change, negative = inhibition: at 46.1 µM (top of the series)
Summary of the method: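 TMD8 ABC-DLBCL cells carrying doxycycline-inducible green luciferase fused to IkappaBalpha plus unfused red luciferase were exposed to compounds (up to 46 uM) for 4 hrs at 37C. Activity came from the overlap-corrected green/red luminescence ratio.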
Potency is read from the fitted curve at half-maximal effect.

SMILES	activity change, negative = inhibition	Potency
CCCOc1ncnc2c1[nH]c1ccc(OC)cc12	inactive	–
O=C(CC1SC(=NCCc2ccccc2)N(/N=C/c2cccs2)C1=O)Nc1ccc(Cl)cc1 (stereo unspecified)	inconclusive: 7.06%	–
Cc1ccc(C(=O)OCC(=O)N(C)c2c(N)n(Cc3ccccc3)c(=O)[nH]c2=O)s1	inconclusive: 10.1%	–
COc1ccc(C(=O)c2ccsc2N)cc1	inactive	–
O=C(O)c1c(Cl)c(Cl)c(Cl)c(Cl)c1C(=O)N1CCCCCC1	inactive	–
CC(=O)CCc1c(C)nc2ccc(C(=O)O)cc2c1Cl	–	inconclusive: 11.6 µM [activator, partial curve]
O=[N+]([O-])c1ccccc1N/N=C\c1ccccc1Cl	–	inconclusive: 3.26 µM [falling, partial curve, poor fit]
COc1ccccc1N1CCN(S(=O)(=O)CCNC(=O)c2cc(=O)c3ccccc3o2)CC1	inactive	–
CCc1ccc(NC(=O)c2cnccn2)cc1	–	inconclusive: 25.1 µM [falling, single point]
C=CCSc1nc2ccsc2c(=O)n1-c1ccccc1	inconclusive: -1.01%	–
Cc1[nH]n(C(N)=S)c(=O)c1N=Nc1ccc2ccccc2c1	–	inconclusive: 0.562 µM [cytotoxic, full curve, poor fit]
Cc1nc2ccccc2c2oc(C(=O)N3CCc4ccccc4C3)cc12	inconclusive: -5.65%	–
O=C(O)c1ccc(CSC2CCCCC2)cc1	inconclusive: 4.3%	–
Cc1nc(SCC(=O)Nc2cccc(C(=O)O)c2)n[nH]1	inconclusive: -29%	–
Cc1ccc(C(=O)COC(=O)c2cccc([N+](=O)[O-])c2)s1	inconclusive: 11.4%	–
CCCn1c(=O)c(C(=O)N/N=C/c2ccccc2F)c(O)c2ccccc21	–	inconclusive: 3.98 µM [falling, full curve, poor fit]
COc1ccc(NC(=O)CSc2nccn2C2CCCC2)cc1OC	inconclusive: -3.07%	–
Cc1ccc(C2OC(=O)c3ccccc32)cc1 (stereo unspecified)	inconclusive: 3.9%	–
CN(C)c1ccc2c3c(cccc13)C(=O)N(c1ccccc1)C2=O	inconclusive: 8.44%	–
CCCCOC(=O)c1ccc(NC(=O)C2(c3cccs3)CCOCC2)cc1	inactive	–
COC(=O)C1CCN(C(=O)COC(=O)C2CCN(S(=O)(=O)c3ccc(C)c(C)c3)CC2)CC1	inconclusive: 1.6%	–
COc1ccc(C(=O)NC2=NCCS2)cc1S(=O)(=O)N1CCCCC1C (stereo unspecified)	inconclusive: -1.51%	–
NC(=O)c1ccc(NC(=O)COC(=O)/C=C/c2ccc3c(c2)OCO3)cc1	inactive	–
O=C(NCc1ccco1)c1cc2ccc(O)cc2oc1=O	–	inconclusive: 31.6 µM [rising, single point]
O=C(NCCc1ccc(Cl)cc1)C1CCCN1C(=O)Nc1ccc(F)cc1 (stereo unspecified)	inconclusive: -2.88%	–
O=C(Nc1ccccc1)NN(C(=O)CCl)c1ccccc1	–	inconclusive: 1.58 µM [falling, full curve]

Looked up by compound from the entries so far, 3 records:
SMILES	activity change, negative = inhibition	Potency
CCCn1c(=O)c(C(=O)N/N=C/c2ccccc2F)c(O)c2ccccc21	–	inconclusive: 3.98 µM [falling, full curve, poor fit]
O=C(O)c1c(Cl)c(Cl)c(Cl)c(Cl)c1C(=O)N1CCCCCC1	inactive	–
Cc1nc(SCC(=O)Nc2cccc(C(=O)O)c2)n[nH]1	inconclusive: -29%	–

(next part)

SMILES	activity change, negative = inhibition	Potency
COC(=O)[C@H](C)N(Cc1ccc(Cl)c(Cl)c1)S(=O)(=O)CCNC1CCCC1	–	inconclusive: 29.1 µM [falling, partial curve, poor fit]
Cc1sc2ncnc(Sc3ccccc3C(=O)O)c2c1C	inactive	–
CNC(=S)Nc1ccc2nc(C)c(C)nc2c1	inactive	–
OCCN1CCN(CCCN2c3ccccc3Sc3ccc(Cl)cc32)CC1	–	inconclusive: 25.9 µM [falling, single point]
CCOC(=O)/C=C/C(=O)Nc1nccs1	inconclusive: 0.881%	–
N#Cc1ccccc1NC(=O)CC1c2ccccc2Oc2ccccc21	inconclusive: 17.7%	–
C/C(=N\Nc1cccc2cccnc12)c1ccc(N)cc1	–	inconclusive: 17.8 µM [falling, partial curve]
Cc1ccc(OCC(=O)NNc2c3ccccc3nc3ccccc23)cc1	inactive	–
O=C(CSCc1ccc(Cl)cc1)Nc1ccc(O)cc1C(=O)O	–	inconclusive: 20 µM [falling, single point]
O=C(O)CC1NC(=S)N(c2ccccc2)C1=O (stereo unspecified)	–	inconclusive: 13 µM [falling, partial curve, poor fit]
C[C@H](NC(=O)c1[nH]cnc1C(=O)Nc1ccon1)c1ccccc1	–	inconclusive: 1.46 µM [rising, full curve, poor fit]
O=C1NC2c3ccccc3C(=O)N2c2c1cnn2-c1ccccc1 (stereo unspecified)	inconclusive: 6.99%	–
O=C(Nc1nsc(-c2ccccc2)n1)c1ccncc1	–	inconclusive: 25.1 µM [falling, single point]
O=C(CSc1nc(=O)n(Cc2ccncc2)c2c1CCC2)Nc1ccccc1	–	inconclusive: 6.31 µM [falling, single point]
O=C(N/N=C/c1ccc(N2CCOCC2)o1)c1cccc([N+](=O)[O-])c1	inconclusive: 0.0756%	–
O=C(CCS(=O)(=O)c1ccc(Br)cc1)N1CCN(c2ccccc2Cl)CC1	inconclusive: 12.5%	–
CC(=O)N1CCc2c(sc(NC(=O)c3ccc([N+](=O)[O-])o3)c2C#N)C1	–	inconclusive: 10 µM [falling, partial curve]
CC(C)[C@H](Nc1nc(-c2ccccc2)nc2c1oc1ccccc12)C(=O)O	–	inconclusive: 12.6 µM [rising, partial curve, poor fit]
COc1ccc(-c2nc3oc4cc(OC)ccc4c(=O)c3c(=O)n2Cc2ccco2)cc1	–	inconclusive: 16.4 µM [falling, single point]
COC(=O)C1=C(C)N(C)C(=S)NC1c1ccc(Cl)cc1 (stereo unspecified)	inactive	–
Oc1cccc(Nc2nc(O)c(/C=C3\C=Nc4ccccc43)s2)c1	–	inconclusive: 35.5 µM [falling, single point]
Brc1ccc(Nc2nc3ccccc3n3nnnc23)cc1	–	inconclusive: 4.11 µM [falling, full curve, poor fit]
Cn1nc(C(F)(F)F)c2cc(NC(=O)OCC(C)(C)C)sc21	inconclusive: 1.1%	–
CC(CCc1ccccc1)NC(=O)CSc1nc(N)cc(N)n1 (stereo unspecified)	inconclusive: 15.2%	–
CC(C)C(C(=O)NC1=NCCS1)c1ccc(Cl)cc1 (stereo unspecified)	inactive	–
